Here are results for seven molecules from publication PMC6091019.

Chains of the proteins cited; added tags and fusions are not shown. Residues count along the entry.
UniProt P02751, residues 32-2477: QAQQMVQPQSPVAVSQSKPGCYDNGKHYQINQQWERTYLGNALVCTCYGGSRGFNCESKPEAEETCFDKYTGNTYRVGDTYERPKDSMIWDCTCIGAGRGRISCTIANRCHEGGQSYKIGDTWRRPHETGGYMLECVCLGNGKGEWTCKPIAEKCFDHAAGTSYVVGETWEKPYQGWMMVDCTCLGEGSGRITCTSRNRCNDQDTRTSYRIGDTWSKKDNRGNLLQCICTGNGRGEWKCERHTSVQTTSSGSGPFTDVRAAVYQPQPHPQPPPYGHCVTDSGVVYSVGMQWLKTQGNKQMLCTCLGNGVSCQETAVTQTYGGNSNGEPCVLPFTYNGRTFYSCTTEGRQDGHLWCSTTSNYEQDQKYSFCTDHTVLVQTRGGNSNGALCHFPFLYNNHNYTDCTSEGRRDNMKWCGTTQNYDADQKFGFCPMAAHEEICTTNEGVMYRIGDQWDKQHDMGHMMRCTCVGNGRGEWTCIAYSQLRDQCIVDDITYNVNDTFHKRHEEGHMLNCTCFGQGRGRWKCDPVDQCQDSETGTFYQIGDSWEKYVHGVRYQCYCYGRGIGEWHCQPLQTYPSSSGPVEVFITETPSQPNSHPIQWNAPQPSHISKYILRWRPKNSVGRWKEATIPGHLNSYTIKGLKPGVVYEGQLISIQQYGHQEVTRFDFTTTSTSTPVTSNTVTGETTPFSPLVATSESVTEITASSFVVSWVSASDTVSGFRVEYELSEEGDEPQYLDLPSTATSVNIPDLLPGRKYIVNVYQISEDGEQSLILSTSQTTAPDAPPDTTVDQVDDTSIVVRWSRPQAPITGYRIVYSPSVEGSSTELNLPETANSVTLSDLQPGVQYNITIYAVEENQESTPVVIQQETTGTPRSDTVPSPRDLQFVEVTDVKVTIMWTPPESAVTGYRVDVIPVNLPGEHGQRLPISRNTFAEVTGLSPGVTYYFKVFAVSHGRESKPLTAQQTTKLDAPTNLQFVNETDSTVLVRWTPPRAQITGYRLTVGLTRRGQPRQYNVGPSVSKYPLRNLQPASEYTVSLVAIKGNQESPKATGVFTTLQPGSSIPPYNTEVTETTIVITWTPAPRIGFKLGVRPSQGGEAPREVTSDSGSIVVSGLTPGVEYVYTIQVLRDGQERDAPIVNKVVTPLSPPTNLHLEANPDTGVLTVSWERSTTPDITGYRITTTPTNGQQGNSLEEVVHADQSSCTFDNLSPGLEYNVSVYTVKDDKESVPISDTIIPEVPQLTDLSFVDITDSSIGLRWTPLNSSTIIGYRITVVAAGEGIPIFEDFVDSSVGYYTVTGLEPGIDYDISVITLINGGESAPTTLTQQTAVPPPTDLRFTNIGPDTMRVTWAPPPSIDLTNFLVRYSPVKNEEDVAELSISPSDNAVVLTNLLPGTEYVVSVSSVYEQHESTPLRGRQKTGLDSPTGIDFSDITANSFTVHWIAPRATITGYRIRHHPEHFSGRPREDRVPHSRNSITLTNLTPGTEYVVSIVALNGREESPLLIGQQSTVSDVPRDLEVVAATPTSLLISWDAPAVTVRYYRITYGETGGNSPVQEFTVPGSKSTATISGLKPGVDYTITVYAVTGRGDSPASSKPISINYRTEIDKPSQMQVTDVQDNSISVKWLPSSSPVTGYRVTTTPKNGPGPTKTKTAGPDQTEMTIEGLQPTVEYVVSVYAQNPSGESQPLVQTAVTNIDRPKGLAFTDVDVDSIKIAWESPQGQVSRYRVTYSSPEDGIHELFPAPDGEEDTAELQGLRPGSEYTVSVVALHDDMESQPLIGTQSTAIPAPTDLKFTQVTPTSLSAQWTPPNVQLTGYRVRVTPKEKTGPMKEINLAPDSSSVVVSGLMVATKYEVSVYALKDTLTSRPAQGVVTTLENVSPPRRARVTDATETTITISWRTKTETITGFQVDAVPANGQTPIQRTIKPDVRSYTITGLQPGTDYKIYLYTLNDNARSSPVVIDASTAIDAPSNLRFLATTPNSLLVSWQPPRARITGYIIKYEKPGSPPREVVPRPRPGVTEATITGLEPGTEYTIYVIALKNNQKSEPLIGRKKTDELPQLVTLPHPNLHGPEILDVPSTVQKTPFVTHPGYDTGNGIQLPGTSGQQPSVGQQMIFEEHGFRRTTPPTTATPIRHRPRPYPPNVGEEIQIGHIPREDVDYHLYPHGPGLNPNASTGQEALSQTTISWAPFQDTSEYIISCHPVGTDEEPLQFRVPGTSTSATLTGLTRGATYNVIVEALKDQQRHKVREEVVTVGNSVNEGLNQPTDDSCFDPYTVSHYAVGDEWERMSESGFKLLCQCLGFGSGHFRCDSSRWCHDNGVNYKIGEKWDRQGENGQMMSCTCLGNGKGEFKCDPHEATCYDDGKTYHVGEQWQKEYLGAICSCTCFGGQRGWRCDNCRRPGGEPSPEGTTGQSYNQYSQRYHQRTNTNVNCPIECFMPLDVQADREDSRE
UniProt P04937, residues 25-2477: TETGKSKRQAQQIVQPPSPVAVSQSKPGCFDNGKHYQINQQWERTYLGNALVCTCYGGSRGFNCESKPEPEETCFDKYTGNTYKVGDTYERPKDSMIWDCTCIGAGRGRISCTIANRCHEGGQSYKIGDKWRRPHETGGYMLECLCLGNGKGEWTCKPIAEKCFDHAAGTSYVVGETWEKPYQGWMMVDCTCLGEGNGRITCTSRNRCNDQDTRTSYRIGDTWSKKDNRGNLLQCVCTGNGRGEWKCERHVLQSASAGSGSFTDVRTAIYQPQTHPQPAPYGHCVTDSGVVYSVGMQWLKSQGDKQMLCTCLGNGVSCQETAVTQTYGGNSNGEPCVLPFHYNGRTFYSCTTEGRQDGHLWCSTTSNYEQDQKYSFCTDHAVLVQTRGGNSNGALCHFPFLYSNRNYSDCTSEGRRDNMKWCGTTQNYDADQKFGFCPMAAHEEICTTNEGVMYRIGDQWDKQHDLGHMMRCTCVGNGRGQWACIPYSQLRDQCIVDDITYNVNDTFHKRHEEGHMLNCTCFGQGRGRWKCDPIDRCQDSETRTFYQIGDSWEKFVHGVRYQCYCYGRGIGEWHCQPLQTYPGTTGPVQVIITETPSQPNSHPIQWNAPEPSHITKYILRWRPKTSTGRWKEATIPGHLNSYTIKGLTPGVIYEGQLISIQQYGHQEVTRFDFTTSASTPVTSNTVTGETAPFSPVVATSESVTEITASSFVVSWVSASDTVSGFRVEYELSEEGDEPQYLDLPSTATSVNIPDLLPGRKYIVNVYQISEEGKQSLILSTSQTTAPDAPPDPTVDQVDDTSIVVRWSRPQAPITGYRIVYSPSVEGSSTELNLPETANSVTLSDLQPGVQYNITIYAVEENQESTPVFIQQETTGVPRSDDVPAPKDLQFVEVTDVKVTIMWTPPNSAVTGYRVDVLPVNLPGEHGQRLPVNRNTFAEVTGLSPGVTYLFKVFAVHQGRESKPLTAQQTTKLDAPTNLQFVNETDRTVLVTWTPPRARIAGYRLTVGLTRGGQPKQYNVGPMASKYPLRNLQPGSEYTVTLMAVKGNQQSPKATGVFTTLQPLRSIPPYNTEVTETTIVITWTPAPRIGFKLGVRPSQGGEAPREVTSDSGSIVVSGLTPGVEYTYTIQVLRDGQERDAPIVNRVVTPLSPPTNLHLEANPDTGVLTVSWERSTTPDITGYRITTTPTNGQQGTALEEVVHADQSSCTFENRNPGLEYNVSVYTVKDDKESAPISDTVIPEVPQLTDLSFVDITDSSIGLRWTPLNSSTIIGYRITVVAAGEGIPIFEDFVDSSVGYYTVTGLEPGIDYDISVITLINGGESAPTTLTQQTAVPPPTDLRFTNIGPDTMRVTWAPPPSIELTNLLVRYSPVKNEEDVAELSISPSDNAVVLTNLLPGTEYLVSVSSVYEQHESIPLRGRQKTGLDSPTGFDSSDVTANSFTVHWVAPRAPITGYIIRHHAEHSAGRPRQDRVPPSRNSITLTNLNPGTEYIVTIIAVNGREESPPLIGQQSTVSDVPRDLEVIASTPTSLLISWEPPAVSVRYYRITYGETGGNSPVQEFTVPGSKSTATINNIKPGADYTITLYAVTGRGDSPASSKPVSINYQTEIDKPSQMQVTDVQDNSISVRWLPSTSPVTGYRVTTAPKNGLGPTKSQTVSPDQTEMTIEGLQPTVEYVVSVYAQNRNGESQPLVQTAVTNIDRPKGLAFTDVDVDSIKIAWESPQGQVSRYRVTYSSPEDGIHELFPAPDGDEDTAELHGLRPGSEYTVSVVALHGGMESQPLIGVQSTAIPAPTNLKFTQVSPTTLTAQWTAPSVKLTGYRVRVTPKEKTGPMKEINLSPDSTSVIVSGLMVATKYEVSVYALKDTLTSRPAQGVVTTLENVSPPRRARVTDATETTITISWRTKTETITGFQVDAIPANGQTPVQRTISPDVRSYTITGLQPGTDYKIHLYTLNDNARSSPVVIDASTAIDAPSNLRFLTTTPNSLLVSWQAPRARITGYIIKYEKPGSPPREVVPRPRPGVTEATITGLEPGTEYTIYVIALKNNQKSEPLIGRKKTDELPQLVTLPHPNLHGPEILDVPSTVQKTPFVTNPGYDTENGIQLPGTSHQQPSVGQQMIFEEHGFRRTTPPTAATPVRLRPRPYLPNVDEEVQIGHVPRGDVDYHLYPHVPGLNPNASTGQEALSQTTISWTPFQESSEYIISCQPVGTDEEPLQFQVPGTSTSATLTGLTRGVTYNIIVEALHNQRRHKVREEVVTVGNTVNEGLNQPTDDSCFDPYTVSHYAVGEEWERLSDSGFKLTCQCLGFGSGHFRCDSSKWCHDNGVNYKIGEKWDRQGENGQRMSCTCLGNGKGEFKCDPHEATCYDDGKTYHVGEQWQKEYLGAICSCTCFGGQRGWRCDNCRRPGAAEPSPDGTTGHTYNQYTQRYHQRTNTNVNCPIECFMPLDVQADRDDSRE
UniProt P07996, residues 19-1170: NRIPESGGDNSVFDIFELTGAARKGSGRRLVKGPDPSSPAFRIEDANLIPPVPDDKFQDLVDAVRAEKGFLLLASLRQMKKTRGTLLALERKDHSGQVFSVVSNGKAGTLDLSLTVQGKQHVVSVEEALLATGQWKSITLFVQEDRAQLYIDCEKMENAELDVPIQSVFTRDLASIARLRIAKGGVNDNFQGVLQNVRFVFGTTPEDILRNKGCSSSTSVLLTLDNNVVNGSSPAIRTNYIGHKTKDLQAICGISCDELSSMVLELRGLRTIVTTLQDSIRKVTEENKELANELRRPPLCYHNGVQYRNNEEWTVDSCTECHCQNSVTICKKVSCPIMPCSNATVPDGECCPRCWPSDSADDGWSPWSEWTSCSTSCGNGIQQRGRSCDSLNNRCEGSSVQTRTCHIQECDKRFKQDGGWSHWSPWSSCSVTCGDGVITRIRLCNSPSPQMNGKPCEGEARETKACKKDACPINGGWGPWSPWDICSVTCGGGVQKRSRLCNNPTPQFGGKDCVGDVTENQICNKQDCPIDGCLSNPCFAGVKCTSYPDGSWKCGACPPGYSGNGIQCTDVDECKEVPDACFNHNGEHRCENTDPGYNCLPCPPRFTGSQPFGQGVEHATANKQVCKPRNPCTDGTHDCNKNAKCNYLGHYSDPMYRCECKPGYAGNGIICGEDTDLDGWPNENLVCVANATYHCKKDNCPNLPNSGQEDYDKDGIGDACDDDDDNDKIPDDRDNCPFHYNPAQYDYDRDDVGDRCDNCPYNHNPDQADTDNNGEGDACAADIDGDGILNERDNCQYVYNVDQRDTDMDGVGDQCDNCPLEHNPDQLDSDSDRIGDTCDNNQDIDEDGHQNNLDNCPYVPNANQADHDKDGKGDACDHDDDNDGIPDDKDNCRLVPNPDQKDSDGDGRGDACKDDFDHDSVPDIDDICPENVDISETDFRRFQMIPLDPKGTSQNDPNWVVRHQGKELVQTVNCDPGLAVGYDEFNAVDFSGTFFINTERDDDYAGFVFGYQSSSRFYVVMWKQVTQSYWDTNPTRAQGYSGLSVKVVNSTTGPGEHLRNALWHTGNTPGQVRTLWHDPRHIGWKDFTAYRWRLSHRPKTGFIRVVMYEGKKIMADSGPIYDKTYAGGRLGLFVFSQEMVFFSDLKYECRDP
UniProt Q9R1E9, residues 25-347: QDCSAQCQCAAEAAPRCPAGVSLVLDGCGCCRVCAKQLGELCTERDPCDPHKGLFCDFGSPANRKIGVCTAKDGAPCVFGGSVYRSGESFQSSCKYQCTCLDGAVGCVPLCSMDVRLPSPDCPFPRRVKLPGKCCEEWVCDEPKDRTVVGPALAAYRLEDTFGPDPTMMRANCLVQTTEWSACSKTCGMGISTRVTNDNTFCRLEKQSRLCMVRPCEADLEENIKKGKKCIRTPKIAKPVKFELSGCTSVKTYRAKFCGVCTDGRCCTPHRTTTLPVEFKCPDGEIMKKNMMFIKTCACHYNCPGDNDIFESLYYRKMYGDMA

No constants are given. Whether binding was seen depends on the method and setting. In cells and extracts the contact can be indirect. Some binding calls cover weakened binding; strength is not graded here.

For assay [1], the target named is MS lesion-derived fibronectin aggregates (DOC-insoluble fraction of human brain tissue) (human (endogenous in brain tissue)) (UniProt P02751). The experiment in a line: co-sedimentation; deoxycholate (DOC) (in)solubility assay of homogenates of human control white matter, chronic (active) and chronic inactive MS lesions; DOC-insoluble and DOC-soluble fractions on Western blot under non-reducing conditions. A general note: Immunoblotting shows a protein as a band on a membrane.

In assay [2] the target is deoxycholate (DOC)-insoluble fibronectin aggregates from primary rat astrocytes (rat (endogenous in primary astrocytes)) (UniProt P04937). The experiment in a line: co-sedimentation; DOC-insoluble fibronectin aggregates from deposits of activated rat astrocytes; SDS-PAGE under reducing conditions, in-gel trypsin digestion, LC-MS (LTQ Orbitrap XL), PEAKS; only proteins known or predicted to be secreted were kept.

Take “thrombospondin-1 (human brain tissue) (from UniProt P07996 19-1170)”: the binding entry in assay [1] is listed as “binds”.

As for “Serine protease HTRA1 (from UniProt Q9QZK5 23-480)”, in assay [2], the binding result is given as “binds”. Consider “Connective tissue growth factor (from UniProt Q9R1E9 25-347)”, for which, in assay [2], the binding result is “binds”. “Heat shock protein HSP 90-beta (from UniProt P34058 1-724)”: the binding result in assay [2] is “binds”.

B1: Trifunctional enzyme subunit beta, mitochondrial (protein, UniProt Q60587 35-475)
chain: SAPAVQTKSKKTLAKPNLKNIVVVEGVRIPFLLSGTSYKDLMPHDLARAALSGLLYRTNIPKDVVDYIIFGTVIQEVKTSNVAREAALGAGFSDKTPAHTVTMACISSNQAMTTAVGLIASGQCDVVVAGGVELMSDVPIRHSRNMRKMMLDLNKAKTLAQRLSLLTKFRLNFLSPELPAVAEFSTNETMGHSADRLAAAFAVSRMEQDKYALRSHSLAKKAQDEGHLSDIVPFKVPGKDTVSKDNGIRPSSLEQMAKLKPAFIKPYGTVTAANSSFLTDGASAMLIMSEDRALAMGYKPKAYLRDFIYVSQDPKDQLLLGPTYATPKVLEKAGLTMNDIDAFEFHEAFSGQILANFKAMDSDWFAQNYMGRKTKVGAPPLEKFNIWGGSLSLGHPFGATGCRLVMAAANRLRKDGGQYALVAACAAGGQGHAMIVEAYPK
As for B1, the binding result in assay [2] was “binds”.

B2: Serpin H1 (protein, UniProt P29457 18-417)
chain: AEVKKPVEAAAPGTAEKLSSKATTLAERSTGLAFSLYQAMAKDQAVENILLSPLVVASSLGLVSLGGKATTASQAKAVLSAEKLRDEEVHTGLGELVRSLSNSTARNVTWKLGSRLYGPSSVSFADDFVRSSKQHYNCEHSKINFRDKRSALQSINEWASQTTDGKLPEVTKDVERTDGALLVNAMFFKPHWDEKFHHKMVDNRGFMVTRSYTVGVTMMHRTGLYNYYDDEKEKLQLVEMPLAHKLSSLIILMPHHVEPLERLEKLLTKEQLKTWMGKMQKKAVAISLPKGVVEVTHDLQKHLAGLGLTEAIDKNKADLSRMSGKKDLYLASVFHATAFEWDTEGNPFDQDIYGREELRSPKLFYADHPFIFLVRDNQSGSLLFIGRLVRPKGDKMRDEL
On to B2, for which the binding entry in assay [2] is reported as “binds”.

B3: Protein CYR61 (protein, UniProt Q9ES72 25-379)
chain: TCPAACHCPLEAPKCAPGVGLVRDGCGCCKVCAKQLNEDCSKTQPCDHTKGLECNFGASSTALKGICRAQSEGRPCEYNSRIYQNGESFQPNCKHQCTCIDGAVGCIPLCPQELSLPNLGCPNPRLVKVSGQCCEEWVCDEDSIKDSLDDQDDLLGFDASEVELTRNNELIAIGKGSSLKRLPVFGTEPRVLYNPLHAHGQKCIVQTTSWSQCSKSCGTGISTRVTNDNSECRLVKETRICEVRPCGQPVYSSLKKGKKCSKTKKSPEPVRFTYAGCSSVKKYRPKYCGSCVDGRCCTPLQTRTVKMRFRCEDGEMFSKNVMMIQSCKCNYNCPHPNEASFRLYSLFNDIHKFRD
On to B3, for which the binding result in assay [2] is “binds”.
